PubChem BioAssay AID504786, Drosophila RNAi Screening Center, 2011
Purpose: 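Fly genes required for HIF-dependent transcription when hypoxia is mimicked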 (primary screen). Cells: Drosophila S2 cells with a stable HIF luciferase reporter. Reagents: long dsRNA against Drosophila genes, about 0.2 µg dsRNA per well of a 384-well plate. Duration: three days of knock-down, then 20 h of DFO before reading. Conditions: desferrioxamine (DFO) at 100 µM, an iron chelator that mimics hypoxia, for 20 h. Measurement: 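Firefly luciferase driven by the mouse ldh-a hypoxia-response element, measured after 20 h of 100 µM DFO; z-scores per plate, higher means more signal lost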. Direction: z-score: higher = stronger loss of HIF reporter signal.
The deposit covers about 21,000 reagents; this is an unselected part of those that have a named target and a result. 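Primary screen; positive scores mean lost reporter signal, so the sign may be inverted from the usual convention.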 Reagents against one gene are numbered here. A plus sign joins genes that one reagent is predicted to hit. Further read-outs or replicates are left out here.

no.	Gene	dsRNA no.	z-score, replicate 1
1	CG14022	1	-0.2
2	STUB1 (STIP1 homology and U-box containing protein 1)	1	-0.2
3	Taf4 (TBP-associated factor 4)	1	0.9
4	ringer (ringmaker)	1	-0.2
5	TwdlW (TweedleW)	1	0.3
6	CG3335	1	0
7	CG11294	1	-0.3
8	CG13995	1	0.4
9	CG13995	2	-0.3
10	Stat92E	1	0.2
11	Rad9	1	-0.4
12	Alp9 (Alkaline phosphatase 9)	1	-0.2
13	DIP2 (DISCO Interacting Protein 2)	1	-0.2
14	CG42594	1	1.7
15	CG42594	2	-0.3
16	asrij	1	1.3
17	CG12674	1	-0.1
18	CG34427	1	-0.1
19	Cpr30F (Cuticular protein 30F)	1	-0.2
20	CG14131	1	0
21	CG12560	1	-0.3
22	alphaTry (alphaTrypsin)	1	-0.4
23	Rai1 (Rat1 Interacting Protein 1)	1	-0.3
24	Tango14 (Transport and Golgi organization 14)	1	-0.3
25	CG4572	1	-0.3
26	Toll-9	1	-0.2
27	CG42502 + CG10570	1	-0.5
28	CG14298	1	-0.9
29	CR13656 (pseudo)	1	-0.5
30	CR13656 (pseudo)	2	-0.2
31	ppan (peter pan)	1	1.9
32	Nplp2 (Neuropeptide-like precursor 2)	1	-0.2
33	Dnz1 (DNZDHHC/NEW1 zinc finger protein 11)	1	-0.3
34	Irc (Immune-regulated catalase)	1	-0.1

Sorted by “z-score, replicate 1” (low to high): 3 of the entries above.
Gene	dsRNA no.	z-score, replicate 1
Cpr30F (Cuticular protein 30F)	1	-0.2
CG34427	1	-0.1
CG14131	1	0
